Results deposited as PubChem BioAssay AID1224830 (NIAID, 2016)
Test: 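Genes whose knock-down alters the TNF-alpha reporter response to LPS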 (primary screen). Cell system: human THP-1 monocytic leukaemia cells, TNF dual-luciferase reporter clone, PMA-differentiated to macrophage-like cells. Reagent: siRNA pool against human genes, 50 nM. Duration: LPS for 4 h, given about 3 days after siRNA transfection. Conditions: bacterial LPS (TLR4 ligand), 10 ng/ml. Measurement: 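Ratio of firefly to renilla light, scaled to the plate median and expressed as a robust z-score per replicate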. Scale: TNF reporter robust z-score: higher = stronger TNF reporter response to LPS. Hit rule: 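a well is active when its z-score exceeds 2.8 or falls below -1.5; control wells carry no call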.
The deposit covers about 18,000 reagents; shown is an unselected part. About 2,900 of them (16%) count as active. 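Calls are made per well; low scores hint the gene aids the LPS response, high scores that it dampens it.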 Repeated entries: four replicate wells of each siRNA pool.

Silencing of PDGFRB gave: TNF reporter robust z-score -1.25; inactive.
With knock-down of PDGFRB, the screen gave TNF reporter robust z-score -1.34; inactive.
PDGFRB showed TNF reporter robust z-score -1.29; inactive.
Silencing of PDGFRB came out at: TNF reporter robust z-score 0.45; inactive.
Against KCNV2, the values are TNF reporter robust z-score 2.5; inactive.
KCNV2 showed TNF reporter robust z-score 0.06; inactive.
After knock-down of KCNV2, the screen gave TNF reporter robust z-score 0.11; inactive.
Against KCNV2 the deposit lists TNF reporter robust z-score -0.03; inactive.

2 consecutive records from above:
PDGFRB: TNF reporter robust z-score = 0.45; outcome = inactive
KCNV2: TNF reporter robust z-score = 2.5; outcome = inactive

Next entries follow:
After knock-down of PCDHA12, the record shows TNF reporter robust z-score 0.92; inactive.
Against PCDHA12, the values are TNF reporter robust z-score 0.24; inactive.
Knock-down of PCDHA12 resulted in: TNF reporter robust z-score -0.08; inactive.
With knock-down of PCDHA12 the results were TNF reporter robust z-score 0.25; inactive.
With knock-down of TMEM177, the record shows TNF reporter robust z-score -1.42; inactive.
TMEM177 showed TNF reporter robust z-score -1.22; inactive.
For TMEM177, the values are TNF reporter robust z-score -1.38; inactive.
For TMEM177 the deposit lists TNF reporter robust z-score -0.45; inactive.
Against FAM120AOS, the values are TNF reporter robust z-score -0.63; inactive.
FAM120AOS scored TNF reporter robust z-score 0.04; inactive.
Against FAM120AOS the deposit lists TNF reporter robust z-score -0.77; inactive.
Depletion of FAM120AOS gave: TNF reporter robust z-score -0.94; inactive.
